# According to PubChem BioAssay AID504465 (National Center for Advancing Translational Sciences (NCATS), 2011):
# About 210 (10%) of roughly 2,100 compounds were called active. The inconclusive results got no clear call from the source; some entries with a clear call stand among them for comparison. The call rests on the fitted dose curve; in most records, active means well fitted inhibition curve with a large enough effect; inconclusive means small, poorly fitted or top-dose-only effect, or effect the other way; inactive means no such curve, though single readings can be large or run the other way. Potencies beside an inconclusive call are fits to weak or partial responses and may not hold up.
# Assay: IN Cell qHTS Assay for Inhibitors of the mTORC1 Signaling Pathway in MEF (Tsc2-/-, p53-/-) Cells: Sytravon; further: nearly all actives have a fitted effect of over 60% in size
# Settings: phospho-rpS6 immunofluorescence, 24 h; activity, negative = inhibition: at 38.3 µM (top of the series)
# Procedure, shortened: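 Immunofluorescence of rpS6 phosphorylation (Ser235/236) in mouse embryonic fibroblasts lacking Tsc2 and p53, after 24 h compound exposure; Hoechst-normalized signal imaged, each well scored as % active cells relative to rapamycin (7.5 nM) and DMSO controls.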
# Potency means the concentration at half of the fitted maximal effect.
SMILES,Potency,"activity, negative = inhibition"
Cc1ccc2[nH]cc(C(c3ccccc3)c3ccc(C)s3)c2c1 (stereo not drawn),"inconclusive: 23.3 µM [falling, single point]",
COc1ccc(-c2nnc(SCc3cc(=O)c4cc(C)cc(C)c4[nH]3)n2C)cc1,active: 18.5 µM,
COc1ccc(CNC(=O)Nc2ccc3c(c2)N(C)C(=O)c2ccccc2S3)cc1,"inconclusive: 3.69 µM [falling, full curve, poor fit]",
COc1ccc(-c2[nH]c(-c3ccc(O)cc3)nc2-c2ccccc2)cc1,"inconclusive: 8.26 µM [falling, partial curve, poor fit]",
COc1ccc(OC)c(-c2cc(C(=O)Nc3cnn(Cc4ccc(Cl)cc4Cl)c3)no2)c1,"inconclusive: 0.369 µM [falling, partial curve, poor fit]",
COc1ccc(C)cc1NC(=O)NCc1ccc2c(c1)CCN2C(=O)c1ccccc1,"inconclusive: 18.5 µM [falling, partial curve, poor fit]",
COc1cc(NC(=O)c2cccc3c2C(=O)N(C2CCCCC2)C3)cc(OC)c1OC,"inconclusive: 2.93 µM [falling, single point]",
COc1ccc(CNC(=O)CCCN2C(=O)CSc3c2c(C)nn3-c2ccccc2)cc1,,inactive: -4.75%
CCN(CC)CCNC(=O)C1CCN(c2nn3cc(-c4ccc(F)cc4)nc3s2)CC1,"inconclusive: 23.3 µM [falling, single point]",
CCCCOc1ccccc1CC1C(=O)Nc2ccc(Br)cc21 (stereo not drawn),"inconclusive: 20.7 µM [falling, partial curve, poor fit]",
COc1cc(C(=O)n2nc(C)c(Sc3ccc(Cl)cc3)c2C)cc(OC)c1OC,active: 11.7 µM,
Cc1cccc(N2CCN(CCNC(=O)Nc3ccc(Cl)cc3)CC2)c1C,"inconclusive: 5.85 µM [falling, full curve, poor fit]",
O=C(Nc1ccc(F)cc1)c1csc2c1CCCCC2,"inconclusive: 23.3 µM [falling, single point]",
COc1ccc(CC(=O)Nc2sc3c(c2C(=O)Nc2ccccc2)CCCCC3)cc1,active: 9.27 µM,
CCCCC(=O)OC1=C(C(=O)c2ccccc2)N(CCC)S(=O)(=O)c2ccccc21,,inactive: -13.9%
Cc1cc(C)c2oc(-c3cccc(NC(=O)COc4ccc([N+](=O)[O-])cc4)c3)nc2c1,"inconclusive: 18.5 µM [falling, partial curve, poor fit]",
COc1ccc(Cn2ccn(Cc3cccc(OC)c3)c(=O)c2=O)cc1,"inconclusive: 14.7 µM [falling, single point]",
Cc1ccccc1C1CC(=O)Nc2ccc3ccccc3c21 (stereo not drawn),,inactive: -6.74%
Cc1ccc(Cl)cc1N1CCN(C(=O)c2ccc3c(c2)N(Cc2ccc(F)cc2)CCS3)CC1,,inactive: -18.8%
CCCCN(CCCNC(=O)c1cc(Nc2ccc(OC)c(OC)c2)nc2ccccc12)Cc1ccccc1,active: 2.33 µM,
Cc1ccc(C)c(CN2C(=O)C(=O)c3ccccc32)c1,"inconclusive: 0.826 µM [falling, full curve]",
CCSc1nnc2n(-c3cccc(C)c3)c(=O)c3c4c(sc3n12)CCCC4,"inconclusive: 16.5 µM [falling, single point]",
COc1ccc(NC(=O)c2cc3c(=O)n(Cc4ccco4)ccc3nc2C)cc1,,inactive: 0.892%

SMILES,Potency,"activity, negative = inhibition"
COc1ccc(-c2cc3ccc(O)c(CN4CCOCC4)c3oc2=O)cc1OC,"inconclusive: 23.3 µM [falling, single point]",
Cc1ccc(C(=O)Nc2ccc(-c3cn4cccnc4n3)cc2)cc1C,"inconclusive: 26.1 µM [falling, single point]",
O=C(NCC1CCN(Cc2cccc(Cl)c2)CC1)Nc1cc(Cl)ccc1Cl,"inconclusive: 23.3 µM [falling, single point]",
CCCCCn1c(-c2ccc(OC)c(OC)c2)nc2ccccc21,"inconclusive: 0.927 µM [falling, full curve, poor fit]",
COc1ccccc1N1CCN(CCCNC(=O)c2cnn(-c3ccccc3)c2C2CCN(C(=O)OC(C)(C)C)CC2)CC1,"inconclusive: 26.1 µM [falling, single point]",
COc1ccc(NC(=O)CSc2nc3ccccc3n2Cc2cccc(OC)c2)cc1,active: 11.7 µM,
Cc1ccc(NC(=O)c2cc(S(=O)(=O)N3CCc4ccccc43)ccc2F)cc1Cl,,inactive: 6.25%
COc1cc(C2c3c(-c4cc(C)ccc4O)n[nH]c3C(=O)N2CCCO)ccc1OCCC(C)C (stereo not drawn),"inconclusive: 26.1 µM [falling, single point]",
CN(C)CCN(Cc1ccco1)C(=O)c1oc2ccccc2c1NC(=O)c1ccccc1,"inconclusive: 18.5 µM [falling, single point]",
Cc1ccc(NC(=O)CSc2nc(-c3ccco3)cc(C(F)(F)F)n2)cc1,"inconclusive: 0.414 µM [falling, full curve, poor fit]",
COc1ccc(N2CCN(CCCNC(=O)c3nnc(Cc4ccc(F)cc4)o3)CC2)cc1,"inconclusive: 0.117 µM [falling, full curve, poor fit]",
CCC1CCc2nc3sc(C(=O)Nc4cccc(F)c4)c(N)c3cc2C1 (stereo not drawn),"inconclusive: 7.36 µM [falling, partial curve, poor fit]",
O=C(Cn1cc(S(=O)(=O)Cc2cccc(Cl)c2)c2ccccc21)Nc1ccccc1C(F)(F)F,,inactive: -19.7%
O=C(CCc1ccccc1)N1CCc2c([nH]c3ccccc23)C1c1ccc(Cl)cc1 (stereo not drawn),"inconclusive: 5.85 µM [falling, full curve, poor fit]",
Cc1cc(-c2ccc(S(=O)(=O)Nc3cc(Cl)ccc3C)s2)on1,,inactive: -20%
COc1ccc(OC)c(NC(=O)c2c(NCc3ccc(OC)c(OC)c3)sc3c2CCC(C)C3)c1 (stereo not drawn),,inactive: 0%
FC(F)(F)c1cccc(Nc2c3c(nc4ccc(Cl)cc24)CCC3)c1,"inconclusive: 8.26 µM [falling, partial curve, poor fit]",
COc1ccc(NC(=O)CCn2cnc3onc(-c4ccc(F)cc4)c3c2=O)cc1OC,,inactive: -9.75%
CCc1ccc(C(=O)CC2(O)C(=O)N(CCc3ccccc3)c3ccc(Cl)cc32)cc1 (stereo not drawn),"inconclusive: 26.1 µM [falling, single point]",
O=C(NCc1cccc(F)c1)c1ccccc1NC(=O)c1nsc2ccccc12,"inconclusive: 18.5 µM [falling, single point]",
CC(C)c1ccc(C2CC(=O)Nc3cc4c(cc32)OCCO4)cc1 (stereo not drawn),,inactive: 28.6%
CCN(C(=O)CN1C(=O)c2ccccc2Sc2ccc(C(=O)OC)cc21)c1cccc(C)c1,,inactive: -1.6%
O=C(Cn1nc2c(cc1=O)CCCC2)NCc1ccc(Cl)cc1,"inconclusive: 18.5 µM [falling, partial curve, poor fit]",

SMILES,Potency,"activity, negative = inhibition"
COc1ccc(CCNc2nc(-c3ccc(F)cc3)cc(C(F)(F)F)n2)cc1OC,"inconclusive: 13.1 µM [falling, single point]",
CC(NC(=O)c1c2c(nc3ccccc13)C(=O)N(C1CCCCC1)C2)c1ccccc1 (stereo not drawn),,inactive: -0.206%
COc1ccc(NC(=O)Cn2c(=O)n(Cc3ccco3)c(=O)c3cc(OC)c(OC)cc32)cc1,active: 14.7 µM,
CS(=O)(=O)c1oc(-c2ccc(F)cc2)nc1S(=O)(=O)c1ccc(Cl)cc1,"inconclusive: 20.7 µM [falling, single point]",
Cc1ccc(Nc2c(-c3ccsc3)nc3cccc(C)n23)cc1,"inconclusive: 0.185 µM [falling, full curve]",
CCC1=Nc2cc(C(=O)NCc3ccccc3Cl)ccc2Sc2ccc(C)cc21,,inactive: 0%
COCc1cc(C)nc2sc(C(=O)Nc3ccc(OC(F)(F)F)cc3)c(N)c12,"inconclusive: 13.1 µM [falling, partial curve, poor fit]",
COc1ccccc1NC(=O)CSc1nnc2c(n1)[nH]c1ccccc12,,inactive: -25.8%
CCOC(=O)c1c(NC(=O)c2ccc(S(=O)(=O)N3CCCC(C)C3)cc2)sc2c1CC(C)(C)NC2(C)C (stereo not drawn),,inactive: 6.25%
CCCC1=Nc2cc(C(=O)NCc3ccccc3)ccc2Sc2ccccc21,"inconclusive: 0.585 µM [falling, full curve, poor fit]",
COc1ccc(S(=O)(=O)NC2(C(F)(F)F)NC(=O)N(CCc3ccc(OC)c(OC)c3)C2=O)cc1 (stereo not drawn),,inactive: -12.2%
COc1ccc(OC)c(NC(=O)c2c(NCc3ccc(C)o3)sc3c2CCCCC3)c1,,inactive: 0%
O=C(NCC1CCN(Cc2cccc(F)c2)CC1)c1cc2ccc3cccnc3c2[nH]1,,inactive: -23.5%
Cc1ccccc1C(=O)Nc1sc2c(c1C(=O)N1CCCCC1)CCC(C(C)(C)C)C2 (stereo not drawn),"inconclusive: 23.3 µM [falling, single point]",
Cc1ccccc1CNC(=O)CN1CCSc2ccccc21,"inconclusive: 5.21 µM [falling, single point]",
CCCCOC(=O)c1ccc(NC(=O)c2ccc3c(c2)CCCN3S(C)(=O)=O)cc1,"inconclusive: 26.1 µM [falling, single point]",
CCc1ccccc1NS(=O)(=O)c1ccc2[nH]cc(C(=O)NC3CCCC3)c(=O)c2c1,,inactive: 11.2%
O=C(Cn1c(-c2cccs2)cc2ccccc21)NCCCN1CCN(c2ccc(F)cc2)CC1,active: 14.7 µM,
Cc1cccc(Cn2c(CNC(=O)c3ccccc3)nc3ccccc32)c1,,inactive: -18.5%
COc1ccc(S(=O)(=O)N2CCC(c3nnnn3-c3ccccc3)CC2)cc1OC,"inconclusive: 18.5 µM [falling, single point]",
C#CCN1C(=O)C(O)(CC(=O)c2ccc(OC)c(OC)c2)c2cc(Br)ccc21 (stereo not drawn),"inconclusive: 1.85 µM [falling, full curve]",
Cc1oc2ccc(O)c(CN3CCCCCC3)c2c1C(=O)Nc1cccc(Cl)c1C,,inactive: -13.9%

# An excerpt from above in order of number of heavy atoms, smallest number first:
SMILES,Potency,"activity, negative = inhibition"
Cc1ccc(Nc2c(-c3ccsc3)nc3cccc(C)n23)cc1,"inconclusive: 0.185 µM [falling, full curve]",
Cc1cccc(Cn2c(CNC(=O)c3ccccc3)nc3ccccc32)c1,,inactive: -18.5%
COc1ccc(S(=O)(=O)NC2(C(F)(F)F)NC(=O)N(CCc3ccc(OC)c(OC)c3)C2=O)cc1 (stereo not drawn),,inactive: -12.2%
